Reference: the supplement of paper PMC12823440, “Inhibitors supercharge kinase turnover through native proteolytic circuits” (Nature, 2025)
Where a name gives a salt, the structure may show the parent alone. Some of the results follow. The calls rarely recur for the same compound in another form.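 Kinases, fused to nanoluciferase, were expressed in K562 cells; luminescence was measured every 4 h from 2 to 18 h as percent of control (DMSO = 100%, positive control = 0%). A time point is decreased if signal falls significantly (2 sigma). Hits were called by the authors by a rule that is not shown; the count of time points alone does not decide it.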

Protein sequences, listed by entry. Tags and fused reporters are not part of them. Lines headed by an entry give the natural chain unless they say otherwise; changes in a name come on top.
UniProt Q9Y616: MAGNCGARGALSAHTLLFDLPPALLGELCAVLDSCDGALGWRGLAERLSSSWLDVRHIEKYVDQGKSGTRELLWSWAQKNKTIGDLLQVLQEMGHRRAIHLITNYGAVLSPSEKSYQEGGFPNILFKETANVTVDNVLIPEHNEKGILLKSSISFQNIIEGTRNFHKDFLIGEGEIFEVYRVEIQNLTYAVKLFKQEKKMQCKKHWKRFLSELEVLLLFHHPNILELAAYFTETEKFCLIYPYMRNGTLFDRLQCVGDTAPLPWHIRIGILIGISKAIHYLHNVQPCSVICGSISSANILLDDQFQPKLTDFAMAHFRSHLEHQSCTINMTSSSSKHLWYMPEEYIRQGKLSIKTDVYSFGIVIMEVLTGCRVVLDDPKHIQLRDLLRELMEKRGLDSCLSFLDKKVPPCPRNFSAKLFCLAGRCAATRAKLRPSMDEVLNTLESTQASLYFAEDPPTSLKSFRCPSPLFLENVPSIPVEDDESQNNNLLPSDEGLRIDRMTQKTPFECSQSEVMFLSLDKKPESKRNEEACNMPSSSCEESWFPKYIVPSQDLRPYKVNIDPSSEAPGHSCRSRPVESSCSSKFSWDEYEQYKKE
UniProt P23458: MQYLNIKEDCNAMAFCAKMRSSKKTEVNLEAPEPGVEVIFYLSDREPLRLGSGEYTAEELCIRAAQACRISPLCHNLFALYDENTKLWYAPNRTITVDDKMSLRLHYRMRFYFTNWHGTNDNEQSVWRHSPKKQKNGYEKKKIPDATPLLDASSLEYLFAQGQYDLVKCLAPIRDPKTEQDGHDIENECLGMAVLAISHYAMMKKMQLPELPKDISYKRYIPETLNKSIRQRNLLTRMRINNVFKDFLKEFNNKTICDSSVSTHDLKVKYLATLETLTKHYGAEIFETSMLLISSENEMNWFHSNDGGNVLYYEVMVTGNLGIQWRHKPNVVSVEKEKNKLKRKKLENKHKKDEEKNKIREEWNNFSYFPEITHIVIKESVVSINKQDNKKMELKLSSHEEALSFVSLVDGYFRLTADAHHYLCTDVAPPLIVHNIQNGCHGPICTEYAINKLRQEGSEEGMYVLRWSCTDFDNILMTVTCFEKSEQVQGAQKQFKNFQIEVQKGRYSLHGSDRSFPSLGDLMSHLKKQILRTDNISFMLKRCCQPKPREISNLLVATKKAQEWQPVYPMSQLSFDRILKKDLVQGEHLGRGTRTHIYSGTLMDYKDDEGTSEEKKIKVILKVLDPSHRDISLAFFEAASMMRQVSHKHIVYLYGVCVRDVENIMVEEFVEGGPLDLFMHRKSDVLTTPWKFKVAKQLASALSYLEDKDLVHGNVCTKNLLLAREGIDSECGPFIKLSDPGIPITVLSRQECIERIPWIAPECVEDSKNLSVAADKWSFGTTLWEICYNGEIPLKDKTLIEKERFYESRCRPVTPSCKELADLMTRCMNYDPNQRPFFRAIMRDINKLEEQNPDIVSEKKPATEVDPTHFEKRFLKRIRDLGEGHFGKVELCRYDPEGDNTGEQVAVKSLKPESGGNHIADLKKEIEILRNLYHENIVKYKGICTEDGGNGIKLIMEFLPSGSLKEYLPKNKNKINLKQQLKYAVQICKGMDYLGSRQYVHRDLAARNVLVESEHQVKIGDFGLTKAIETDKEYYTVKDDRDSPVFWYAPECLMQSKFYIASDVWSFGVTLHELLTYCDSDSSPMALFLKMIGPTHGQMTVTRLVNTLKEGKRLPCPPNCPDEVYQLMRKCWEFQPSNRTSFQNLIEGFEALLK
UniProt P06239: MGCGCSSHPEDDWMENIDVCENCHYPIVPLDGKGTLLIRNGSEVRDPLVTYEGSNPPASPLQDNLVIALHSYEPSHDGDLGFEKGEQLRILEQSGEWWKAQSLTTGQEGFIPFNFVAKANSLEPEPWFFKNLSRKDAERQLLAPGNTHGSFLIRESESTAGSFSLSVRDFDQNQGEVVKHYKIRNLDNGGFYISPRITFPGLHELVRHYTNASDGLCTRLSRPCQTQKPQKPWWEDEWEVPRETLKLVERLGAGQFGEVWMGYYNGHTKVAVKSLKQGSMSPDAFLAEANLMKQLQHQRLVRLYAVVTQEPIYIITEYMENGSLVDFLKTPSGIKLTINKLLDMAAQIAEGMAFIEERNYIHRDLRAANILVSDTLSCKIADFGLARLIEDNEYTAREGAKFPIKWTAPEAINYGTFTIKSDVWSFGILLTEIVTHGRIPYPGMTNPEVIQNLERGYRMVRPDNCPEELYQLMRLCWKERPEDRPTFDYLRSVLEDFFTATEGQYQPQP
UniProt P53667: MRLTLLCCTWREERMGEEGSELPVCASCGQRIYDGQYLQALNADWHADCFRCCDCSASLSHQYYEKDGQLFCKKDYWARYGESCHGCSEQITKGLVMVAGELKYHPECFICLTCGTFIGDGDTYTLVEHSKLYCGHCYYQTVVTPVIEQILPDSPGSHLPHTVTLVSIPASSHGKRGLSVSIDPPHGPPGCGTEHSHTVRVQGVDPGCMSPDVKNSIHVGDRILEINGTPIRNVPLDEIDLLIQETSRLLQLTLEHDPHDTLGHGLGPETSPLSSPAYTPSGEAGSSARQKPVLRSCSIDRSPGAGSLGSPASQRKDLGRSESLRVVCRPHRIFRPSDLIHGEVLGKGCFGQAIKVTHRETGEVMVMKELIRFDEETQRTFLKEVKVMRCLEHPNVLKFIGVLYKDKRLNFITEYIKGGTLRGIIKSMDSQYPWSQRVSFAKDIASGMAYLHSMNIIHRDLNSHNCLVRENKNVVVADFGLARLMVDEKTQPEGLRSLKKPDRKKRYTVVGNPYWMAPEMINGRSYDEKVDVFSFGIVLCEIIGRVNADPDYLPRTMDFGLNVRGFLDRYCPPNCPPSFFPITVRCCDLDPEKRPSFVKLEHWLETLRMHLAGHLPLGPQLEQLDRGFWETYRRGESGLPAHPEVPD
UniProt P53671: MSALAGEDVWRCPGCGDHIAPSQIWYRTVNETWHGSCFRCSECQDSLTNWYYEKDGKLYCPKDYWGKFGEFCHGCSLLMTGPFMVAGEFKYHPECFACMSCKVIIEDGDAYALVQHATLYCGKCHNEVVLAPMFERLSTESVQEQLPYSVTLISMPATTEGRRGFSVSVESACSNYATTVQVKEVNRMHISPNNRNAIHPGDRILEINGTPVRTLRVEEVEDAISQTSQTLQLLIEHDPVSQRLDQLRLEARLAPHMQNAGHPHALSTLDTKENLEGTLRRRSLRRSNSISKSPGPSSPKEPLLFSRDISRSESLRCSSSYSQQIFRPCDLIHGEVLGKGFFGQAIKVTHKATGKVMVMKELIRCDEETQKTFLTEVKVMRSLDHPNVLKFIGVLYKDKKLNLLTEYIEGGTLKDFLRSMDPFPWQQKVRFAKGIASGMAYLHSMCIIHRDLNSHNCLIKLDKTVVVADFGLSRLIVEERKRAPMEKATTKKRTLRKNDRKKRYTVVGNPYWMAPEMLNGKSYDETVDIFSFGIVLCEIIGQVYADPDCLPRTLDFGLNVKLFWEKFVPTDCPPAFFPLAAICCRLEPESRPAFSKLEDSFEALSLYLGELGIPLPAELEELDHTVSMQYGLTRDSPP
UniProt Q8IWU2: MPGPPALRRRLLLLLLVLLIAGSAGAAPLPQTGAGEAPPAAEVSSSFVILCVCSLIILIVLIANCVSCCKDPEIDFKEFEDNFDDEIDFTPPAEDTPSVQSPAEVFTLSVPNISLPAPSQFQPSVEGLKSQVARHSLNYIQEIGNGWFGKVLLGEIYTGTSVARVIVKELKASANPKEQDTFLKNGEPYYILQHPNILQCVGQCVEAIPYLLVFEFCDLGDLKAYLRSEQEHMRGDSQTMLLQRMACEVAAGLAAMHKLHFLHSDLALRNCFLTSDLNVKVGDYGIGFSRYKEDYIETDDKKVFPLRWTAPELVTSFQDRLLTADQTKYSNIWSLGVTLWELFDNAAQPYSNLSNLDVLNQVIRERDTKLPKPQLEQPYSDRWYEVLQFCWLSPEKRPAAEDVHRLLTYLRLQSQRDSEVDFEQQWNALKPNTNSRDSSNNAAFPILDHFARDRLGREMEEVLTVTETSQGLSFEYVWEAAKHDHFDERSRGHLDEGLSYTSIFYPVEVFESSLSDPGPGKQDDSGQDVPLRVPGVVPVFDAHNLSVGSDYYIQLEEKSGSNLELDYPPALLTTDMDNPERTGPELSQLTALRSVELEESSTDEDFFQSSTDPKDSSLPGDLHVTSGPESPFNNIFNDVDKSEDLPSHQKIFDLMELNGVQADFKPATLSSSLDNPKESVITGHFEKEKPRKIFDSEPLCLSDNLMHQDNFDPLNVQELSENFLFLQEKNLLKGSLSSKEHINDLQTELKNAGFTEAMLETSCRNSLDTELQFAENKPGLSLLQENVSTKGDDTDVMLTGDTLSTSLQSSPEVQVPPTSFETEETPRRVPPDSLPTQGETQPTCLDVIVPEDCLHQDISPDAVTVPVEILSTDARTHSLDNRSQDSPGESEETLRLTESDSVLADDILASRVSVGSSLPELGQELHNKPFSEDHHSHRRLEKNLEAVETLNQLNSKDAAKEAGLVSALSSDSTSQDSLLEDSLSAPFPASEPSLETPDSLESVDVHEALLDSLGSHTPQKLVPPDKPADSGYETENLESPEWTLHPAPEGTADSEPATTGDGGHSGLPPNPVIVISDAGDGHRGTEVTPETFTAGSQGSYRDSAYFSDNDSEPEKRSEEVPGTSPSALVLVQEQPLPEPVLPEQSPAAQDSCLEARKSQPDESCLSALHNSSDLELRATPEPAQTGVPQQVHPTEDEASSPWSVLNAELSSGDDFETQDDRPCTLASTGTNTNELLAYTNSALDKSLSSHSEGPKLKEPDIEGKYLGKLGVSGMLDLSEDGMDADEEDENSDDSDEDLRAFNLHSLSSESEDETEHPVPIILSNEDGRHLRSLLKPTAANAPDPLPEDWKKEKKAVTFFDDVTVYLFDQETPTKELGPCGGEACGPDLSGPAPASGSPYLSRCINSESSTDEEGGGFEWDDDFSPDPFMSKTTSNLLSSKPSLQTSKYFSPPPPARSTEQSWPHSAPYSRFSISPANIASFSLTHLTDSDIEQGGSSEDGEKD
UniProt P07948: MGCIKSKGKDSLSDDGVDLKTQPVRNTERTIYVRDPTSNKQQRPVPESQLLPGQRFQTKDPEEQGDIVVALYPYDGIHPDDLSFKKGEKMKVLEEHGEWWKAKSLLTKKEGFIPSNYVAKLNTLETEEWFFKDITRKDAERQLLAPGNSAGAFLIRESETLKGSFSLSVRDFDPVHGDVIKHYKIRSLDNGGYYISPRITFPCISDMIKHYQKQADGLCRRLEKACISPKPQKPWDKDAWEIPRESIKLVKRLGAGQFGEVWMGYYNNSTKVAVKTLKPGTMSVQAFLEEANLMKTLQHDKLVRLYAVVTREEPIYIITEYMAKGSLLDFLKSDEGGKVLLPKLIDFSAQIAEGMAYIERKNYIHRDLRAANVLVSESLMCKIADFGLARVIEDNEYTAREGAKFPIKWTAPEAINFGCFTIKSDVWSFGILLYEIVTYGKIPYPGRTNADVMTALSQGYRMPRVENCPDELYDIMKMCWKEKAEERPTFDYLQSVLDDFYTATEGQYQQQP
UniProt Q12851: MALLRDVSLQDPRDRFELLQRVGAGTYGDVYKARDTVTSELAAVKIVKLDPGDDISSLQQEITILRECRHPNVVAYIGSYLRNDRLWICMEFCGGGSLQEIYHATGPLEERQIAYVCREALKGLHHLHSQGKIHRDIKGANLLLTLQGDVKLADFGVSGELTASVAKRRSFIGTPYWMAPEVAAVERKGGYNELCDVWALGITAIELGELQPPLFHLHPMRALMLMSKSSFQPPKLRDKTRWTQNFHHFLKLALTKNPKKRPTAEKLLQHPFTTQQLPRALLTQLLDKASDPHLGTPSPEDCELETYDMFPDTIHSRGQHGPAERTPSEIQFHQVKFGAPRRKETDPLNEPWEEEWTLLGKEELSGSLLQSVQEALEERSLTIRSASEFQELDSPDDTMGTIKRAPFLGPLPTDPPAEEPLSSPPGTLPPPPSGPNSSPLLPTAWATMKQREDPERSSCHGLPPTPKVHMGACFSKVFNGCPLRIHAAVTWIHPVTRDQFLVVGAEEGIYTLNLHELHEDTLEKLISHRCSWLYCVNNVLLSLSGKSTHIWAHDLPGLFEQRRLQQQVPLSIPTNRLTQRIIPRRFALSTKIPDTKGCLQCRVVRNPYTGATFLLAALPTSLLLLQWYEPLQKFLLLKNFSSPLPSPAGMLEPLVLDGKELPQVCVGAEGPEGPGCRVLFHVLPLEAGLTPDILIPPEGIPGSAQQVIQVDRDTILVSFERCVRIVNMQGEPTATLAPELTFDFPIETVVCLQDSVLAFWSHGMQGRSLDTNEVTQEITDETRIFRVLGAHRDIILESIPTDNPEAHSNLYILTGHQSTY

Experiments:
Assay in all cases: kinase-Nluc reporter destabilization hit call (1 = scored as downregulated) (binary); higher = compound decreases kinase abundance
Conditions in all cases: K562, 2-18 h
IRAK3 = IRAK3 (UniProt Q9Y616)
JAK1 = JAK1 (UniProt P23458)
LCK = LCK (UniProt P06239)
LIMK1 = LIMK1 (UniProt P53667)
LIMK2 = LIMK2 (UniProt P53671)
LMTK2 = LMTK2 (UniProt Q8IWU2)
LYN = LYN (UniProt P07948)
MAP2K1 = MAP2K1 (UniProt Q02750)
MAP2K2 = MAP2K2 (UniProt P36507)
MAP4K2 = MAP4K2 (UniProt Q12851)

Measured: kinase-Nluc reporter destabilization hit call

OCCn1cc(-c2cnc3nnn(Cc4ccc5ncccc5c4)c3n2)cn1
inactive: IRAK3; 10 µM 0 | JAK1; 10 µM 0 | LCK; 10 µM 0 | LIMK1; 10 µM 0 | LIMK2; 10 µM 0 | LMTK2; 10 µM 0 | LYN; 10 µM 0 | MAP2K1; 10 µM 0 | MAP2K2; 10 µM 0 | MAP4K2; 10 µM 0

COc1cc2c(Oc3ccc4[nH]c(C)cc4c3F)ncnc2cc1OCCCN1CCCC1 [Cediranib (maleate)]
inactive: IRAK3; 2.5 µM 0 | JAK1; 2.5 µM 0 | LCK; 2.5 µM 0 | LIMK1; 2.5 µM 0 | LIMK2; 2.5 µM 0 | LMTK2; 2.5 µM 0 | LYN; 2.5 µM 0 | MAP2K1; 2.5 µM 0 | MAP2K2; 2.5 µM 0 | MAP4K2; 2.5 µM 0

CNc1ncc2cc(-c3ccc(-c4cccc(C)n4)cc3Cl)c(=O)n(C[C@H]3OC[C@H](N)CO3)c2n1
inactive: IRAK3; 10 µM 0 | JAK1; 10 µM 0 | LCK; 10 µM 0 | LIMK1; 10 µM 0 | LIMK2; 10 µM 0 | LMTK2; 10 µM 0 | LYN; 10 µM 0 | MAP2K1; 10 µM 0 | MAP2K2; 10 µM 0 | MAP4K2; 10 µM 0

COc1ccc(S(=O)(=O)N(CCO)c2ccccc2CN(C)C/C=C/c2ccc(Cl)cc2)cc1 [KN-93 (phosphate)]
inactive: IRAK3; 2.5 µM 0 | JAK1; 2.5 µM 0 | LCK; 2.5 µM 0 | LIMK1; 2.5 µM 0 | LIMK2; 2.5 µM 0 | LMTK2; 2.5 µM 0 | LYN; 2.5 µM 0 | MAP2K1; 2.5 µM 0 | MAP2K2; 2.5 µM 0 | MAP4K2; 2.5 µM 0

Nc1ncnc2c1c(-c1ccc(Oc3ccccc3)cc1)nn2[C@@H]1CCCNC1 [IBT6A (hydrochloride)]
inactive: IRAK3; 2.5 µM 0 | JAK1; 2.5 µM 0 | LCK; 2.5 µM 0 | LIMK1; 2.5 µM 0 | LIMK2; 2.5 µM 0 | LMTK2; 2.5 µM 0 | LYN; 2.5 µM 0 | MAP2K1; 2.5 µM 0 | MAP2K2; 2.5 µM 0 | MAP4K2; 2.5 µM 0

O=C(O)c1ccc2c(c1)nc(Nc1cccc(Cl)c1)c1ccncc12 [Silmitasertib]
inactive: IRAK3; 10 µM 0 | JAK1; 10 µM 0 | LCK; 10 µM 0 | LIMK1; 10 µM 0 | LIMK2; 10 µM 0 | LMTK2; 10 µM 0 | LYN; 10 µM 0 | MAP2K1; 10 µM 0 | MAP2K2; 10 µM 0 | MAP4K2; 10 µM 0

CN(C)C(=N)NC(=N)N [Metformin]
inactive: IRAK3; 10 µM 0 | JAK1; 10 µM 0 | LCK; 10 µM 0 | LIMK1; 10 µM 0 | LIMK2; 10 µM 0 | LMTK2; 10 µM 0 | LYN; 10 µM 0 | MAP2K1; 10 µM 0 | MAP2K2; 10 µM 0 | MAP4K2; 10 µM 0

2 records drawn at random from those above:
O=C(O)c1ccc2c(c1)nc(Nc1cccc(Cl)c1)c1ccncc12 [Silmitasertib]
inactive: IRAK3; 10 µM 0 | JAK1; 10 µM 0 | LCK; 10 µM 0 | LIMK1; 10 µM 0 | LIMK2; 10 µM 0 | LMTK2; 10 µM 0 | LYN; 10 µM 0 | MAP2K1; 10 µM 0 | MAP2K2; 10 µM 0 | MAP4K2; 10 µM 0

CNc1ncc2cc(-c3ccc(-c4cccc(C)n4)cc3Cl)c(=O)n(C[C@H]3OC[C@H](N)CO3)c2n1
inactive: IRAK3; 10 µM 0 | JAK1; 10 µM 0 | LCK; 10 µM 0 | LIMK1; 10 µM 0 | LIMK2; 10 µM 0 | LMTK2; 10 µM 0 | LYN; 10 µM 0 | MAP2K1; 10 µM 0 | MAP2K2; 10 µM 0 | MAP4K2; 10 µM 0

(continued)

CC(C)Nc1cc(-c2c[nH]c(C(=O)N[C@H](CO)c3cccc(Cl)c3)c2)c(Cl)cn1 [Ulixertinib (hydrochloride)]
inactive: IRAK3; 10 µM 0 | JAK1; 10 µM 0 | LCK; 10 µM 0 | LIMK1; 10 µM 0 | LIMK2; 10 µM 0 | LMTK2; 10 µM 0 | LYN; 10 µM 0 | MAP2K1; 10 µM 0 | MAP2K2; 10 µM 0 | MAP4K2; 10 µM 0

Clc1ccc(C2(c3ccc(-c4cn[nH]c4)cc3)CCNCC2)cc1
inactive: IRAK3; 10 µM 0 | JAK1; 10 µM 0 | LCK; 10 µM 0 | LIMK1; 10 µM 0 | LIMK2; 10 µM 0 | LMTK2; 10 µM 0 | LYN; 10 µM 0 | MAP2K1; 10 µM 0 | MAP2K2; 10 µM 0 | MAP4K2; 10 µM 0

Nc1ncnc2c1c(-c1ccc(Oc3ccccc3)cc1)nn2[C@@H]1CCCNC1
inactive: IRAK3; 2.5 µM 0 | JAK1; 2.5 µM 0 | LCK; 2.5 µM 0 | LIMK1; 2.5 µM 0 | LIMK2; 2.5 µM 0 | LMTK2; 2.5 µM 0 | LYN; 2.5 µM 0 | MAP2K1; 2.5 µM 0 | MAP2K2; 2.5 µM 0 | MAP4K2; 2.5 µM 0

COC(=O)[C@H](CC(C)C)NC(=O)c1ccc(NC[C@@H](N)CS)cc1-c1cccc2ccccc12 [GGTI298 (Trifluoroacetate)]
inactive: IRAK3; 10 µM 0 | JAK1; 10 µM 0 | LCK; 10 µM 0 | LIMK1; 10 µM 0 | LIMK2; 10 µM 0 | LMTK2; 10 µM 0 | LYN; 10 µM 0 | MAP2K1; 10 µM 0 | MAP2K2; 10 µM 0 | MAP4K2; 10 µM 0

Cc1[nH]c(/C=C2\C(=O)Nc3ccc(F)cc32)c(C)c1C(=O)NCCN1CCCC1 [Toceranib (phosphate)]
inactive: IRAK3; 2 µM 0 | JAK1; 2 µM 0 | LCK; 2 µM 0 | LIMK1; 2 µM 0 | LIMK2; 2 µM 0 | LMTK2; 2 µM 0 | LYN; 2 µM 0 | MAP2K1; 2 µM 0 | MAP2K2; 2 µM 0 | MAP4K2; 2 µM 0

COc1cc2c(cc1OC)-c1c(C)c3ccc(OC)c(OC)c3c[n+]1CC2 [Dehydrocorydaline]
inactive: IRAK3; 10 µM 0 | JAK1; 10 µM 0 | LCK; 10 µM 0 | LIMK1; 10 µM 0 | LIMK2; 10 µM 0 | LMTK2; 10 µM 0 | LYN; 10 µM 0 | MAP2K1; 10 µM 0 | MAP2K2; 10 µM 0 | MAP4K2; 10 µM 0
